System: Trypanosoma brucei rhodesiense (bloodstream trypomastigotes, STIB 900 strain)
Assay: In vitro anti-trypanosomal activity against Tbr
Type: cell-based
Settings: isolated compounds; SI = cytotoxic IC50 (L6)/IC50 Tbr
Experimental: In vitro tests for biological activity of the crude extracts, fractions, sub-fractions and isolated compounds against Trypanosoma brucei rhodesiense (bloodstream trypomastigotes, STIB 900 strain), Trypanosoma cruzi (amastigotes, Tulahuen C4 strain), Leishmania donovani (amastigotes, MHOM-ET-67/L82 strain), Plasmodium falciparum (intraerythrocytic form, NF54 strain) and cytotoxicity test against mammalian L6 cell line from rat skeletal myoblasts were performed according to the established standard protocol. However, only the activity data against Trypanosoma brucei rhodesiense is reported due to the inactivity of the tested substances against other parasites at the concentration tested.

Row | Compound | SI
1 | CC(=O)[C@H]1CC[C@H]2[C@@H]3CC[C@H]4C[C@@H](N)CC[C@]4(C)[C@H]3CC[C@]12C [Compound 5, 3β-dihydroholaphyllamine] | 25.8
2 | CC(=O)[C@H]1CC[C@H]2[C@@H]3CC[C@H]4C[C@H](N)CC[C@]4(C)[C@H]3CC[C@]12C [Compound 6, 3α-dihydroholaphyllamine] | 14.1
